According to doi:10.1101/2023.05.22.23290124:
No constants are given. Whether binding was seen depends on the method and setting. In cells and extracts the contact can be indirect. Here binding means that the protein was enriched with, or labelled near, the bait; the list need not be complete.

Amino acid sequences for entries named in this document (tags omitted).
UniProt P25786: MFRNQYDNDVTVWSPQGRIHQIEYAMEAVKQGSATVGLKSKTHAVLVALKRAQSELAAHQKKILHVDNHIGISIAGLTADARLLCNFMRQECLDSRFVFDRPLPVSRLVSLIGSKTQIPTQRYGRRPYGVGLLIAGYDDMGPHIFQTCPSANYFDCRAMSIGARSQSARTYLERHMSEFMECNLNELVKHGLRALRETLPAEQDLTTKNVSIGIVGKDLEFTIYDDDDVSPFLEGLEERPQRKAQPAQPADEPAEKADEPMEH
UniProt Q13148: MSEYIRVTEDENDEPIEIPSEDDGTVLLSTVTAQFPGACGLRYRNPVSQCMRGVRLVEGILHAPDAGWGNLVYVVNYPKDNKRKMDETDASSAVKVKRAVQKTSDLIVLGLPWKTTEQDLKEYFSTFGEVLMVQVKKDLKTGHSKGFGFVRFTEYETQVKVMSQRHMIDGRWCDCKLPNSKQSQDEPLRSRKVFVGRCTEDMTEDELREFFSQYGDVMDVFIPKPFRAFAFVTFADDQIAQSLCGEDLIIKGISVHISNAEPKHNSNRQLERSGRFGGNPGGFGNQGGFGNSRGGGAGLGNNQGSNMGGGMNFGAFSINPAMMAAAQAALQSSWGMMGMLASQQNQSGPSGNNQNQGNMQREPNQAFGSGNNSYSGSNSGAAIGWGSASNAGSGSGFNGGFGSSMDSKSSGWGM

Target: PSMA1 (a core component of 20S proteasome) (human (endogenous in hiPSC-derived neurons)) (UniProt P25786)
Test: affinity purification with mass spectrometry

Substance: TDP-43 (from UniProt Q13148 1-414)
- binding: binds
